In publication PMC8307317 (Molecules, 2021):
Strings that start with PEPTIDE1 are HELM notation: dots part the residues, brackets hold end groups and non-standard residues.

Assay: general procedure: Fmoc solid-phase peptide synthesis; Rink amide MBHA resin; HBTU/DIEA
Conditions: whole synthesis, analytical RP-HPLC, Vydac 218TP54 C18, scale of the general procedure 0.1 mmol

| Substance | final HPLC purity |
| --- | --- |
| PEPTIDE1{G.G.C.S.C.R.F.[am]}$PEPTIDE1,PEPTIDE1,3:R3-5:R3$$$V2.0 | 99.9% |
| PEPTIDE1{G.G.C.S.F.R.C.[am]}$PEPTIDE1,PEPTIDE1,3:R3-7:R3$$$V2.0 | 99.9% |
| PEPTIDE1{G.G.F.S.C.R.C.[am]}$PEPTIDE1,PEPTIDE1,5:R3-7:R3$$$V2.0 | 99.9% |
| PEPTIDE1{G.G.F.S.F.R.F.[am]}$$$$V2.0 | 99.9% |
| PEPTIDE1{G.G.F.S.F.R.W.[am]}$$$$V2.0 | 99.9% |
| PEPTIDE1{G.G.F.S.F.R.[2Nal].[am]}$$$$V2.0 | 99.9% |
| PEPTIDE1{G.G.F.S.F.R.[AHPPA].[am]}$$$$V2.0 | 99.9% |
| PEPTIDE1{G.G.F.S.F.R.[NMePhe].[am]}$$$$V2.0 | 99.9% |
| PEPTIDE1{G.G.F.S.F.R.[NPhe].[am]}$$$$V2.0 | 99.9% |
| PEPTIDE1{G.G.F.S.F.R.[Oic].[am]}$$$$V2.0 | 99.9% |
| PEPTIDE1{G.G.F.S.F.R.[Thi].[am]}$$$$V2.0 | 99.9% |
| PEPTIDE1{G.G.F.S.F.R.[Tic].[am]}$$$$V2.0 | 99.9% |
| PEPTIDE1{G.G.F.S.F.R.[dW].[am]}$$$$V2.0 | 99.9% |
| PEPTIDE1{G.G.F.S.W.R.F.[am]}$$$$V2.0 | 99.9% |
| PEPTIDE1{G.G.F.S.[2Nal].R.F.[am]}$$$$V2.0 | 99.9% |
| PEPTIDE1{G.G.F.S.[AHPPA].R.F.[am]}$$$$V2.0 | 99.9% |
| PEPTIDE1{G.G.F.S.[NMePhe].R.F.[am]}$$$$V2.0 | 98.9% |
| PEPTIDE1{G.G.F.S.[NPhe].R.F.[am]}$$$$V2.0 | 99.9% |
| PEPTIDE1{G.G.F.S.[Oic].R.F.[am]}$$$$V2.0 | 99.9% |
| PEPTIDE1{G.G.F.S.[Thi].R.F.[am]}$$$$V2.0 | 99.9% |
| PEPTIDE1{G.G.F.S.[Tic].R.F.[am]}$$$$V2.0 | 99.9% |
| PEPTIDE1{G.G.F.S.[dW].R.F.[am]}$$$$V2.0 | 99.9% |

| Substance | final HPLC purity |
| --- | --- |
| PEPTIDE1{G.G.W.S.F.R.F.[am]}$$$$V2.0 | 99.9% |
| PEPTIDE1{G.G.[2Nal].S.F.R.F.[am]}$$$$V2.0 | 99.9% |
| PEPTIDE1{G.G.[AHPPA].S.F.R.F.[am]}$$$$V2.0 | 99.9% |
| PEPTIDE1{G.G.[DTic].S.F.R.F.[am]}$$$$V2.0 | 99.9% |
| PEPTIDE1{G.G.[NMePhe].S.F.R.F.[am]}$$$$V2.0 | 99.9% |
| PEPTIDE1{G.G.[NPhe].S.F.R.F.[am]}$$$$V2.0 | 99.9% |
| PEPTIDE1{G.G.[Oic].S.F.R.F.[am]}$$$$V2.0 | 99.9% |
| PEPTIDE1{G.G.[Phg].S.F.R.F.[am]}$$$$V2.0 | 97.8% |
| PEPTIDE1{G.G.[Thi].S.F.R.F.[am]}$$$$V2.0 | 99.9% |
| PEPTIDE1{G.G.[Tic].S.F.R.F.[am]}$$$$V2.0 | 99.9% |
| PEPTIDE1{G.G.[dW].S.F.R.F.[am]}$$$$V2.0 | 99.9% |
| PEPTIDE1{[Cmpi(3,4-diMeOPhg)].S.F.R.F.[am]}$$$$V2.0 | 99.9% |
| PEPTIDE1{[Cmpi(3-FPhg)].S.F.R.F.[am]}$$$$V2.0 [53] | 99.9% |
| PEPTIDE1{[Cmpi(3-FPhg)].S.F.R.F.[am]}$$$$V2.0 [54] | 99.9% |
| PEPTIDE1{[Cmpi(3-Pyg)].S.F.R.F.[am]}$$$$V2.0 [63] | 99.9% |
| PEPTIDE1{[Cmpi(3-Pyg)].S.F.R.F.[am]}$$$$V2.0 [64] | 99.9% |
| PEPTIDE1{[Cmpi(4-FPhg)].S.F.R.F.[am]}$$$$V2.0 [51] | 99.9% |
| PEPTIDE1{[Cmpi(4-FPhg)].S.F.R.F.[am]}$$$$V2.0 [52] | 99.9% |
| PEPTIDE1{[Cmpi(4-MeOPhg)].S.F.R.F.[am]}$$$$V2.0 | 99.9% |
| PEPTIDE1{[Cmpi(4-TfmPhg)].S.F.R.F.[am]}$$$$V2.0 | 99.9% |
| PEPTIDE1{[Cmpi(Phg)].S.F.R.F.[am]}$$$$V2.0 | 99.9% |
